# Out of some 310,000 compounds screened, about 17,000 (5.5%) were called active. The inconclusive results got no clear call from the source; some entries with a clear call stand among them for comparison. Calls follow the shape of the dose curve; as a rule, active = well fitted inhibition curve with a large enough effect; inconclusive = small, poorly fitted or top-dose-only effect, or effect the other way; inactive = no such curve, though single readings can be large or run the other way. Where the call is inconclusive, the potency comes from a doubtful curve fit.
# Sequences of proteins named here, by UniProt entry; tags and fusion partners are left off. A change or cut given only in a name is not applied to a line headed by its entry.
# UniProt P51450: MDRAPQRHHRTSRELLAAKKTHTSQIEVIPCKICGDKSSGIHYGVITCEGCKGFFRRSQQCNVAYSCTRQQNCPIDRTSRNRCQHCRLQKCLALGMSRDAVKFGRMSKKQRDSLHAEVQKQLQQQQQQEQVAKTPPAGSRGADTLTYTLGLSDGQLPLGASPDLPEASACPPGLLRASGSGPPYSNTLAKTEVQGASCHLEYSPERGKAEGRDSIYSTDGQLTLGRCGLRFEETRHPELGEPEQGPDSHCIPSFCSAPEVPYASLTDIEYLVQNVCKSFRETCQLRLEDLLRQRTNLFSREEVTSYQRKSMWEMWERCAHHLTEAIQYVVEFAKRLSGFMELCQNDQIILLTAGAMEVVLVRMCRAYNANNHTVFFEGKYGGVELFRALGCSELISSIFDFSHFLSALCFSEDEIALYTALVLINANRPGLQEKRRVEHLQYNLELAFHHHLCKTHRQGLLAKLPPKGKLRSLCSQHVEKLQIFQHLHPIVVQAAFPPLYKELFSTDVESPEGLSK
# Target: Nuclear receptor ROR-gamma (Mus musculus) (UniProt P51450)
# Test: qHTS for inhibitors of ROR gamma transcriptional activity; also: nearly all actives have a fitted effect of over 60% in size
# Details: Drosophila S2 Gal4-RORgamma UAS-luciferase reporter, 20 h; activity change, negative = inhibition: at 53.6 µM (top of the series)
# How it was run: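 In this cell-based reporter format, copper sulfate (700 uM final) drives Gal4–ROR gamma fusion expression from a metallothionein promoter in Drosophila Schneider cells; compounds preincubated 1 hr, reporter read after 20 hr at ambient temperature.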
# % is scaled to controls: 0 for no effect and ±100 for the full control effect; potency is read from the fitted curve at half-maximal effect.
SMILES,Potency,"activity change, negative = inhibition"
CC(=O)N1CCOc2ccc(S(=O)(=O)N3CCC(C(=O)NCc4ccc(C)cc4)CC3)cc21,inactive,
O=C(CSc1ccccc1)NC1CCCCCCC1,"inconclusive: 3.16 µM [activator, single point]",
CN(C)S(=O)(=O)Nc1ccccc1F,inactive,
COc1cccc(-c2nnc(SCC(=O)Nc3cc(C)on3)o2)c1,active: 12.6 µM,
COc1ccccc1Cn1c(/C=C/c2ccccc2)nc2ccccc21,"inconclusive: 35.5 µM [inhibitor, single point]",
CCc1ccccc1NC1=NCC(=O)N1Cc1ccc2c(c1)OCO2,"inconclusive: 0.0112 µM [inhibitor, full curve, poor fit]",
COC(=O)N1CCC[C@@]2(CCN(C(=O)Nc3cccc(F)c3)C2)C1,inactive,
CC(C)(C)C(=O)Nc1nnc(COc2ccc(Cl)cc2)s1,"inconclusive: 35.5 µM [inhibitor, single point]",
Cc1nnc(NCc2n[nH]c(=O)c3ccccc23)c2ccccc12,"inconclusive: 35.5 µM [inhibitor, single point]",
O=[N+]([O-])c1ccc(CSc2ncnc3ccccc23)cc1,active: 7.94 µM,
O=C(N/N=C/c1cc([N+](=O)[O-])ccc1O)C12CC3CC(CC(C3)C1)C2,"inconclusive: 0.501 µM [inhibitor, full curve, poor fit]",
CC(=O)Nc1nn(C)c2nc(C)cc(C)c12,inactive,
Fc1ccc(N/N=C/c2ccncc2)c(F)c1,"inconclusive: 3.16 µM [activator, partial curve]",
CCOC(=O)CN1N=C(/C=C/c2ccc(C(C)C)cc2)CCC1=O,"inconclusive: 12.6 µM [activator, partial curve]",
CCOc1ccc(/C=N/NC(N)=S)cc1,active: 5.01 µM,
Cc1ccc(-n2c(Cc3cccn3C)nnc2SCC(N)=O)cc1,"inconclusive: 35.5 µM [activator, single point]",
COc1cccc(CNc2ccc3nc(-c4ccc(N)cc4)c(OC)n3n2)c1,"inconclusive: 22.4 µM [activator, partial curve]",
CCCn1c(NCc2ccccn2)nc2ccccc21,active: 14.1 µM,
Cc1ccc(Cn2ncc3c(N4CCN(Cc5ccc(Cl)cc5)CC4)ncnc32)cc1,"inconclusive: 35.5 µM [activator, single point]",
COc1ccnc(Oc2ccccc2)c1C(=O)N/C=N/OCc1ccc(F)cc1Cl,"inconclusive: 35.5 µM [activator, single point]",
COc1ccccc1NC(=S)N1CCN(Cc2ccccc2)CC1,inactive,
Cn1cccc1P(=O)(c1cccn1C)c1cccn1C,"inconclusive: 0.708 µM [inhibitor, single point]",
COc1ccccc1CNS(=O)(=O)c1ccc(-c2cnc(C3CC3)o2)cc1,"inconclusive: 35.5 µM [activator, single point]",
O=C(Nc1ccc(Cc2ccncc2)cc1)c1cccs1,"inconclusive: 20 µM [activator, single point]",

SMILES,Potency,"activity change, negative = inhibition"
CC(=O)OC1c2c(ccc3ccc(=O)oc23)OC(C)(C)C1OC(=O)CC(C)C (configuration not stated),"inconclusive: 17.8 µM [activator, single point]",
O=[N+]([O-])c1cc(-c2ccc(/C=N/c3nc4ccccn4c3-c3ccco3)o2)ccc1Cl,inactive,
Cc1ccc2nsnc2c1S(=O)(=O)N(Cc1ccco1)Cc1cc2ccc(C)c(C)c2[nH]c1=O,inactive,
COc1ccc(CNc2cc(C)nc3ccc(OC)cc23)cc1,inactive,
O=C(C1CCN(S(=O)(=O)c2cccc3cccnc23)CC1)N1CCc2ccccc21,"inconclusive: 35.5 µM [activator, single point]",
CCOC(=O)c1ccc(S(=O)(=O)Nc2nc3cc(S(=O)(=O)NC4=NCCCCC4)ccc3s2)cc1,active: 14.1 µM,
CCN(CC)C(=O)N1c2ccccc2CC(N(CC)CC)c2ccccc21 (configuration not stated),inactive,
CCOc1ccc(NC(=O)NC2CCCc3ccccc32)cc1 (configuration not stated),"inconclusive: 15.8 µM [activator, partial curve]",
O=C(COC(=O)c1cc(=O)[nH]c2ccccc12)Nc1nc(-c2ccccc2)cs1,"inconclusive: 11.2 µM [activator, single point]",
COc1ccc(/C(C)=N/NC(=S)NCCc2ccccc2)c(O)c1,active: 5.01 µM,
O=C(CSc1nc(-c2ccccc2)c(-c2ccccc2)o1)Nc1nnc(-c2ccccc2)s1,"inconclusive: 17.8 µM [inhibitor, single point]",
O=C(Oc1cccc(C(=S)N2CCOCC2)c1)c1cc([N+](=O)[O-])cc([N+](=O)[O-])c1,inactive,
Cc1ccc(N/N=C(\Cc2nc3ccccc3[nH]2)c2ccccc2)cc1,"inconclusive: 22.4 µM [inhibitor, single point]",
O=C(Nc1cc(C(F)(F)F)ccc1-n1cnc2ccccc21)c1ccccc1,"inconclusive: 35.5 µM [inhibitor, single point]",
CCN1CC(CN(C)Cc2nc(-c3ccc(C(F)(F)F)cc3)oc2C)CC1=O (configuration not stated),"inconclusive: 35.5 µM [activator, single point]",
CCOc1cc(C(=O)OCC(=O)c2c(C)[nH]c3ccccc23)ccc1OCC(=O)N1CCOCC1,,inactive: 17.1% [at 10 µM]
CCOc1ccc(-c2nc(=S)[nH][nH]2)cc1,active: 5.01 µM,
COc1ccc(C)cc1NC(=O)CN1CCN(C/C=C/c2ccccc2)CC1,active: 10 µM,
CC[C@H](C)[C@@H](NC(=O)O[C@@H]1C(=O)c2ccc(OC)cc2O[C@H]1c1ccc2c(c1)OCO2)C(=O)OC,inactive,
CC(C)Cn1c(-c2ccc(Br)cc2)c[nH]c1=S,active: 0.631 µM,
COc1ccc(Nc2ccc([N+](=O)[O-])cn2)cc1,"inconclusive: 2.24 µM [activator, full curve]",
CCN(CC)CCN(C(=O)c1ccc(C(C)=O)cc1)c1nc2ccc(Cl)cc2s1,"inconclusive: 11.2 µM [inhibitor, single point]",
COc1ccc(C(=O)CC(=O)O)c2c1C=CC(C)(C)O2,"inconclusive: 20 µM [activator, single point]",

# Ordered by molecular weight (ascending): part of the list above.
SMILES,Potency,"activity change, negative = inhibition"
CC(=O)OC1c2c(ccc3ccc(=O)oc23)OC(C)(C)C1OC(=O)CC(C)C (configuration not stated),"inconclusive: 17.8 µM [activator, single point]",
O=[N+]([O-])c1cc(-c2ccc(/C=N/c3nc4ccccn4c3-c3ccco3)o2)ccc1Cl,inactive,
CCOC(=O)c1ccc(S(=O)(=O)Nc2nc3cc(S(=O)(=O)NC4=NCCCCC4)ccc3s2)cc1,active: 14.1 µM,

# From PubChem BioAssay AID2551 (National Center for Advancing Translational Sciences (NCATS), 2010)
